Record: PubChem BioAssay AID1159584 (Peter MacCallum Cancer Centre, 2016)
Here is one part, drawn at random, of about 18,000 deposited reagents. The numbers tell different reagents against one gene apart. Not all columns of the deposit are shown. Not given: the amount of reagent, the time to read-out.

- Test: 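Genes whose loss is lethal only together with E-cadherin loss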 (primary screen)
- System: human MCF10A breast epithelial cells, parental and CDH1-null
- Reagents: siRNA against human genes
- Detection: 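Cell viability by CellTiter-Glo ATP luminescence, each line scaled to the mean of mock wells across plates, then CDH1-null over parental ratio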
- Reading the numbers: CDH1-null / parental viability ratio: higher = CDH1-null cells survive relatively better than parental; CDH1-null viability vs mock: higher = more viable CDH1-null cells
- Units: CDH1-null viability vs mock in fraction of mock

What is on record for KRT77 (GeneID 374454)?
CDH1-null / parental viability ratio: 1.2; CDH1-null viability vs mock: 1.08

For MAP2K6 (GeneID 5608), what does the deposit list?
CDH1-null / parental viability ratio: 0.84; CDH1-null viability vs mock: 0.72

Which result is listed for EGFL6 (GeneID 25975)?
CDH1-null / parental viability ratio: 1.79; CDH1-null viability vs mock: 0.43

With UPK1B (GeneID 7348), how do the results read?
CDH1-null / parental viability ratio: 1.07; CDH1-null viability vs mock: 0.92

What is on record for FAAP24 (GeneID 91442)?
CDH1-null / parental viability ratio: 1.1; CDH1-null viability vs mock: 0.8

What did the screen give for SIGLEC8 (GeneID 27181)?
CDH1-null / parental viability ratio: 1.67; CDH1-null viability vs mock: 0.97

With ARAP1 (GeneID 116985), what does the deposit list?
CDH1-null / parental viability ratio: 1.3; CDH1-null viability vs mock: 0.52

With PDP1 (GeneID 54704), what was measured?
CDH1-null / parental viability ratio: 1.39; CDH1-null viability vs mock: 0.99

With COLCA1 (GeneID 399948), what does the deposit list?
CDH1-null / parental viability ratio: 1.18; CDH1-null viability vs mock: 1.13

What is on record for SIK3 (GeneID 23387)?
CDH1-null / parental viability ratio: 0.96; CDH1-null viability vs mock: 0.72

With PMF1 (GeneID 11243), what does the deposit list?
CDH1-null / parental viability ratio: 0.95; CDH1-null viability vs mock: 0.86

Which result is listed for EPB41L3 (GeneID 23136)?
CDH1-null / parental viability ratio: 0.88; CDH1-null viability vs mock: 0.68

For SPPL2C (GeneID 162540), what was measured?
CDH1-null / parental viability ratio: 1.27; CDH1-null viability vs mock: 0.89

For PHKB (GeneID 5257), what was measured?
CDH1-null / parental viability ratio: 0.87; CDH1-null viability vs mock: 0.77

Which result is listed for ANKRD30A (GeneID 91074)?
CDH1-null / parental viability ratio: 1; CDH1-null viability vs mock: 0.59

With KCNK10 (GeneID 54207), how do the results read?
CDH1-null / parental viability ratio: 1.16; CDH1-null viability vs mock: 0.88

With MTFP1 (GeneID 51537), what was measured?
CDH1-null / parental viability ratio: 0.97; CDH1-null viability vs mock: 0.97

Which result is listed for OR13F1 (GeneID 138805)?
CDH1-null / parental viability ratio: 1.07; CDH1-null viability vs mock: 0.6

What did the screen give for IRF4 (GeneID 3662)?
CDH1-null / parental viability ratio: 1.06; CDH1-null viability vs mock: 0.9

What is on record for SLCO1C1 (GeneID 53919)?
CDH1-null / parental viability ratio: 1.07; CDH1-null viability vs mock: 0.88

With MCAM (GeneID 4162), how do the results read?
CDH1-null / parental viability ratio: 0.89; CDH1-null viability vs mock: 0.58

For DCDC1 (GeneID 341019) #1, what does the deposit list?
CDH1-null / parental viability ratio: 1.06; CDH1-null viability vs mock: 0.76

What is on record for DCDC1 (GeneID 341019) #2?
CDH1-null / parental viability ratio: 1.09; CDH1-null viability vs mock: 1.02

For HINT2 (GeneID 84681), what was measured?
CDH1-null / parental viability ratio: 0.91; CDH1-null viability vs mock: 0.61

With IGF2BP3 (GeneID 10643), how do the results read?
CDH1-null / parental viability ratio: 0.95; CDH1-null viability vs mock: 0.76

With RPL36A (GeneID 6173), what does the deposit list?
CDH1-null / parental viability ratio: 0.92; CDH1-null viability vs mock: 0.48

What is on record for TRNAU1AP (GeneID 54952)?
CDH1-null / parental viability ratio: 1.26; CDH1-null viability vs mock: 0.92

For MEGF10 (GeneID 84466), how do the results read?
CDH1-null / parental viability ratio: 1.05; CDH1-null viability vs mock: 0.67

How did the screen score ITM2B (GeneID 9445)?
CDH1-null / parental viability ratio: 0.95; CDH1-null viability vs mock: 0.93

What is on record for C7orf25 (GeneID 79020)?
CDH1-null / parental viability ratio: 1.29; CDH1-null viability vs mock: 0.54

With BPIFC (GeneID 254240), what was measured?
CDH1-null / parental viability ratio: 0.98; CDH1-null viability vs mock: 0.51

With TRIM2 (GeneID 23321), how do the results read?
CDH1-null / parental viability ratio: 0.91; CDH1-null viability vs mock: 0.9

How did the screen score FHDC1 (GeneID 85462)?
CDH1-null / parental viability ratio: 1; CDH1-null viability vs mock: 0.62

With TBC1D10A (GeneID 83874), how do the results read?
CDH1-null / parental viability ratio: 1; CDH1-null viability vs mock: 0.86

What did the screen give for BRINP1 (GeneID 1620)?
CDH1-null / parental viability ratio: 1.08; CDH1-null viability vs mock: 0.7

Laid out differently: results already given.
target gene | reagent | CDH1-null / parental viability ratio | CDH1-null viability vs mock
SPPL2C (GeneID 162540) | 1 | 1.27 | 0.89
PHKB (GeneID 5257) | 1 | 0.87 | 0.77
ANKRD30A (GeneID 91074) | 1 | 1 | 0.59
